Experimental data published in article PMC11151825 (RSC Chemical Biology, 2024).

Assay: general procedure: Fmoc solid-phase peptide synthesis; 2-CTC resin (substitution value 0.45 or 1 mmol/g); HCTU/DIPEA; HATU/DIPEA for ligation and cyclization
Conditions: oxidative folding step, HPLC peak area integration; run 1

| Substance | oxidative folding yield |
| --- | --- |
| VCGETCVGGTCNTPGCTCSWPVCT | 15.4% and 23.4% |

Same assay, conditions: whole synthesis, on initial resin loading, scale of the general procedure 0.125 mmol

| Substance | isolated yield |
| --- | --- |
| Boc-FK(ivDde)PLAAaR(Pbf) | 43.3% |
| Boc-GC(Acm)Y(tBu)FQ(Trt)N(Trt)C(Acm)PR(Pbf)G | 35.0% |
| Boc-GC(Acm)Y(tBu)IQ(Trt)N(Trt)C(Acm)PLG | 36.0% |
| Boc-GCT(tBu)K(ivDde)S(tBu)IPPICG | 4.6% |
| Boc-FK(ivDde)PLA[Abu]aR(Pbf) | 50.0% |
| Boc-R(Pbf)N(Trt)GLP | 50.9% |

Several values for one entry are separate records, joined by “and”; a condition that tells them apart may be missing. Equal values may be shown once. End groups of sequences in plain letters are not given here.
